Measured values: article PMC6796902
Results are given in words; binding and its absence hold for the method and conditions named. In cells and extracts the contact can be indirect. Here binding means that the protein was enriched with, or labelled near, the bait; the list need not be complete.

The chains behind the UniProt entries cited, without tags or fusion partners.
UniProt Q03164: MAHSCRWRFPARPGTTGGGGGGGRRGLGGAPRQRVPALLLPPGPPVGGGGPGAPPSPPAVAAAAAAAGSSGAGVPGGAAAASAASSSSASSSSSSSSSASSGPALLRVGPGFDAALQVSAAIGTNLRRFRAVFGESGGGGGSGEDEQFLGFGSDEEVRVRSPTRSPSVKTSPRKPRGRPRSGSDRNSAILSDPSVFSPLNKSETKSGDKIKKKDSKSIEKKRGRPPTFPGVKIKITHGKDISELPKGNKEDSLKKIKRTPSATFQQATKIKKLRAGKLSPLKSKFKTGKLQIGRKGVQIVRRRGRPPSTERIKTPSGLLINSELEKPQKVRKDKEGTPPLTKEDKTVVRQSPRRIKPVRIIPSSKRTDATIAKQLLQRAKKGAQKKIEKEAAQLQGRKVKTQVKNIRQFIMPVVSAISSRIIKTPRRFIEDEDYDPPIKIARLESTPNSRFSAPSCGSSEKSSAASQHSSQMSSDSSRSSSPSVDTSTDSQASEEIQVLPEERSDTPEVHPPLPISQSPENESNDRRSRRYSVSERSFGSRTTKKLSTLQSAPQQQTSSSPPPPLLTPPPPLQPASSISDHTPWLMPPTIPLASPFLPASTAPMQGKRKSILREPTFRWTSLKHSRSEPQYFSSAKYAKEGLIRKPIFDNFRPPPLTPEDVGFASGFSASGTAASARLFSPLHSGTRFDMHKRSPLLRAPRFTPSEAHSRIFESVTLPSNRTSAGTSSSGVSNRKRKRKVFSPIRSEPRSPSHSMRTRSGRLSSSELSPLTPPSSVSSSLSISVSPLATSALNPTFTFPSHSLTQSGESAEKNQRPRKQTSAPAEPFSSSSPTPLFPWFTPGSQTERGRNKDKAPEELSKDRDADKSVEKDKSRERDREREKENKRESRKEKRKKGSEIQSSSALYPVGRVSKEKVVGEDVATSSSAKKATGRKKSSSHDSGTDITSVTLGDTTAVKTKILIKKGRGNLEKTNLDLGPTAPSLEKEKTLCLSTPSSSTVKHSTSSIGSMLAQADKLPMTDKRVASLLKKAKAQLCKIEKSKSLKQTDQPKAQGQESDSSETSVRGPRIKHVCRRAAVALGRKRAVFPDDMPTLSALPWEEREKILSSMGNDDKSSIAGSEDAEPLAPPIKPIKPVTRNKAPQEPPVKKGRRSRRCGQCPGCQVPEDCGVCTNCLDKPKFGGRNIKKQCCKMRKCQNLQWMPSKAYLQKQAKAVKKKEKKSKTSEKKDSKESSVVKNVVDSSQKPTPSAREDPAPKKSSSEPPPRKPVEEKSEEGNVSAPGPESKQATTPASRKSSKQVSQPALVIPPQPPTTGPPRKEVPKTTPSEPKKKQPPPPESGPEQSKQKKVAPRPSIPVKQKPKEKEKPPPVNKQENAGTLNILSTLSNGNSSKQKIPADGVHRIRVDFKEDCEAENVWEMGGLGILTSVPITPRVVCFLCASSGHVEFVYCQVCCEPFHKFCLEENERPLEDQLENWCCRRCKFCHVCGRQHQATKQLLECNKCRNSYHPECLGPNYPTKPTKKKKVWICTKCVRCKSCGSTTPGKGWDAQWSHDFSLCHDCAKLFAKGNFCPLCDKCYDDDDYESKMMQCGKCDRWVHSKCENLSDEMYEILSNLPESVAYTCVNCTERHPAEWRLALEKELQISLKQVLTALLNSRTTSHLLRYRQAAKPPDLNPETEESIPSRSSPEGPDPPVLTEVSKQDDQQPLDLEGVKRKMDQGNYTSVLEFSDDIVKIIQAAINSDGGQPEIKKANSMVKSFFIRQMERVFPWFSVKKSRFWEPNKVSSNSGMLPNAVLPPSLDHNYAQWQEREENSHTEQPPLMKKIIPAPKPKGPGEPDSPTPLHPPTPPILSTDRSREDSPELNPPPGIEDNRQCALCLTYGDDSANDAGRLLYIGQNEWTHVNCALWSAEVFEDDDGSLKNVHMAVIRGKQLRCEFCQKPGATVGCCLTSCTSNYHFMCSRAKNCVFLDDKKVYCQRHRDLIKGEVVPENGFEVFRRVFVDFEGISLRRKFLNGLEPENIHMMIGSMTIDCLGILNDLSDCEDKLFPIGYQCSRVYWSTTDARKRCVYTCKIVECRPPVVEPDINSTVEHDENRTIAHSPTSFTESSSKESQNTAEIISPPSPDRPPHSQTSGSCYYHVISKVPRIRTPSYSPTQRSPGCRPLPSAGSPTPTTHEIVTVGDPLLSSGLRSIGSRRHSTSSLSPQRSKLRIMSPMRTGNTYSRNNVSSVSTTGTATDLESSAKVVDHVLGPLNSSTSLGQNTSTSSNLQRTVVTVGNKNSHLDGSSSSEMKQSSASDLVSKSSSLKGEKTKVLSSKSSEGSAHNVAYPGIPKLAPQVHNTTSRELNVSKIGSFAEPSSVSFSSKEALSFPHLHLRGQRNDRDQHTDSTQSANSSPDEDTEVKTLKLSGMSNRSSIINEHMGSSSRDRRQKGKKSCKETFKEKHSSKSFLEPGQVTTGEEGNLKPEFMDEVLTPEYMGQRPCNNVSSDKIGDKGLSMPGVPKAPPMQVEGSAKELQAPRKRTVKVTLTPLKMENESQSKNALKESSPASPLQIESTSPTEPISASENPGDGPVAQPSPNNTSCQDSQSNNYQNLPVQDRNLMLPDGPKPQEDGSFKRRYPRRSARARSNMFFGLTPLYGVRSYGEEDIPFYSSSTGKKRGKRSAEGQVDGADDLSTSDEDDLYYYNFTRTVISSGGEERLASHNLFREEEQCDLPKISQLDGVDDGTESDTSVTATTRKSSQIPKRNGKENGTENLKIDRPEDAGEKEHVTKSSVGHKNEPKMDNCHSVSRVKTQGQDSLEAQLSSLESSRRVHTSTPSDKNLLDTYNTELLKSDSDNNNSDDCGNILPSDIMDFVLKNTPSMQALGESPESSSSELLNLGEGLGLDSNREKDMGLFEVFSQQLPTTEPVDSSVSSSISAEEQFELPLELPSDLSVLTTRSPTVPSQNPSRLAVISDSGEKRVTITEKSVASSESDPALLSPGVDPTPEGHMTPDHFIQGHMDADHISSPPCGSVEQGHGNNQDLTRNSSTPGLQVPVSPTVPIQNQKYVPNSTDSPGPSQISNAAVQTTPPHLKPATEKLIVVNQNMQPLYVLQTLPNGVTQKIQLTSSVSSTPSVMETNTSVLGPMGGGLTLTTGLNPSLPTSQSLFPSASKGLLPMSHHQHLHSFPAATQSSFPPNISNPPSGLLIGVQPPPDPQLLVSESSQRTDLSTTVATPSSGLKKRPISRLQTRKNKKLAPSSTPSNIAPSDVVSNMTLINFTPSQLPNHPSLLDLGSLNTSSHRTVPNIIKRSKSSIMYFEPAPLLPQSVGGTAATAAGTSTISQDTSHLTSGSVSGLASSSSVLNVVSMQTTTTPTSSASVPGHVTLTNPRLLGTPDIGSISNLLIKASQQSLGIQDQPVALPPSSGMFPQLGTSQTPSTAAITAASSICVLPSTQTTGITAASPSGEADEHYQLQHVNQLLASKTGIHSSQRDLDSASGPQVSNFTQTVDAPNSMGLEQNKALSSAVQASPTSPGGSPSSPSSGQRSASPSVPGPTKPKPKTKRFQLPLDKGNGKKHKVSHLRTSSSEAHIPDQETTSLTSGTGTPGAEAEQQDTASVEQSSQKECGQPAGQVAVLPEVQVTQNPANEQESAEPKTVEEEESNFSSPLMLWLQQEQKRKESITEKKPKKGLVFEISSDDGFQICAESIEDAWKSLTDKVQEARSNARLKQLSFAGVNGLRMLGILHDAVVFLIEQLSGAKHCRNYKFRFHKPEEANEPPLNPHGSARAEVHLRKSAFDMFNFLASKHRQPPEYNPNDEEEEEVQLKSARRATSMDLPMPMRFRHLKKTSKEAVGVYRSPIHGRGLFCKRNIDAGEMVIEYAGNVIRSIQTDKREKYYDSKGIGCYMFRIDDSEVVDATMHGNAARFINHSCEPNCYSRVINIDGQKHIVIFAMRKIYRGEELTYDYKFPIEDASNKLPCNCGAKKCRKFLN
UniProt O00255: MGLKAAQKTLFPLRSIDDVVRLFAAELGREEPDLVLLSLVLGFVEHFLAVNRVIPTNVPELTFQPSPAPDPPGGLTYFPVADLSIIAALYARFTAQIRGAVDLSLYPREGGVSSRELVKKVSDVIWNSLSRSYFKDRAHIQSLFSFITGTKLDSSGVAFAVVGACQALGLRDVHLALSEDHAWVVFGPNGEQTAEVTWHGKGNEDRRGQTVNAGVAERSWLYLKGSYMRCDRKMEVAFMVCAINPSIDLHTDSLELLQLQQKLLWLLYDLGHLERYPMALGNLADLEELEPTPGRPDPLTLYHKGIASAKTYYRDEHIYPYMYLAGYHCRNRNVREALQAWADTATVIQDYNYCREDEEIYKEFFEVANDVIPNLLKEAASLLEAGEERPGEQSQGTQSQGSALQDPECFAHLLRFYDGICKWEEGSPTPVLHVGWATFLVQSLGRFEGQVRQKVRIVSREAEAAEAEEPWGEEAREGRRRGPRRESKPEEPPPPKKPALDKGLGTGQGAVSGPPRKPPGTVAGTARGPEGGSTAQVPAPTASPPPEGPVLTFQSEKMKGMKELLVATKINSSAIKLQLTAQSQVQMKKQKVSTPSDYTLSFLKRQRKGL
UniProt P11940: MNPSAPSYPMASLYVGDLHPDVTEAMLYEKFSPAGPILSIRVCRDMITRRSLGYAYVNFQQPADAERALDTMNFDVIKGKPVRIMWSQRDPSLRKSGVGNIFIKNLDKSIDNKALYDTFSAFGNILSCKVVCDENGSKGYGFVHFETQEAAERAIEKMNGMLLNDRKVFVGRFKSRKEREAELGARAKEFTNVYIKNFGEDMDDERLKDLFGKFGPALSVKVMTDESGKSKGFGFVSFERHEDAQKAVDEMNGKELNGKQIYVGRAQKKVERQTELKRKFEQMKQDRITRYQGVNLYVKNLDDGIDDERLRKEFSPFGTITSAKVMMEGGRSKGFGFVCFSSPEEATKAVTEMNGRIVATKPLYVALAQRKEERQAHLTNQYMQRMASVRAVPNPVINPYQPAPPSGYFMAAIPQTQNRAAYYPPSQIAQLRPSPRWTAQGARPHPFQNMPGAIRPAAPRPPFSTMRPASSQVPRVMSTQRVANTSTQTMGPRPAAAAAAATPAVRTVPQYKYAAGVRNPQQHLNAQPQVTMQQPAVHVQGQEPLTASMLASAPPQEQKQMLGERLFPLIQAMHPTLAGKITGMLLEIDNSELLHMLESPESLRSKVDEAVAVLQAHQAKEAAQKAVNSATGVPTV
UniProt P67809: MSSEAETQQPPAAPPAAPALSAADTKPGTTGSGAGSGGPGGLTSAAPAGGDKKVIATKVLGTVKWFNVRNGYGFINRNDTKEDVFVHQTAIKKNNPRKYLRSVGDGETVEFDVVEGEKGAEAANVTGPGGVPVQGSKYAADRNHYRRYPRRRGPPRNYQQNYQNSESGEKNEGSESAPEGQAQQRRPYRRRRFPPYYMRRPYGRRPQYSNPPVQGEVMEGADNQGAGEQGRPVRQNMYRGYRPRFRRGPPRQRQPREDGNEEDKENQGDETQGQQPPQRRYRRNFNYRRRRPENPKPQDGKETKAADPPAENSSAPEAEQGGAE

B1: UPF1 (protein, UniProt Q92900 1-1129)
chain: MSVEAYGPSSQTLTFLDTEEAELLGADTQGSEFEFTDFTLPSQTQTPPGGPGGPGGGGAGGPGGAGAGAAAGQLDAQVGPEGILQNGAVDDSVAKTSQLLAELNFEEDEEDTYYTKDLPIHACSYCGIHDPACVVYCNTSKKWFCNGRGNTSGSHIVNHLVRAKCKEVTLHKDGPLGETVLECYNCGCRNVFLLGFIPAKADSVVVLLCRQPCASQSSLKDINWDSSQWQPLIQDRCFLSWLVKIPSEQEQLRARQITAQQINKLEELWKENPSATLEDLEKPGVDEEPQHVLLRYEDAYQYQNIFGPLVKLEADYDKKLKESQTQDNITVRWDLGLNKKRIAYFTLPKTDSGNEDLVIIWLRDMRLMQGDEICLRYKGDLAPLWKGIGHVIKVPDNYGDEIAIELRSSVGAPVEVTHNFQVDFVWKSTSFDRMQSALKTFAVDETSVSGYIYHKLLGHEVEDVIIKCQLPKRFTAQGLPDLNHSQVYAVKTVLQRPLSLIQGPPGTGKTVTSATIVYHLARQGNGPVLVCAPSNIAVDQLTEKIHQTGLKVVRLCAKSREAIDSPVSFLALHNQIRNMDSMPELQKLQQLKDETGELSSADEKRYRALKRTAERELLMNADVICCTCVGAGDPRLAKMQFRSILIDESTQATEPECMVPVVLGAKQLILVGDHCQLGPVVMCKKAAKAGLSQSLFERLVVLGIRPIRLQVQYRMHPALSAFPSNIFYEGSLQNGVTAADRVKKGFDFQWPQPDKPMFFYVTQGQEEIASSGTSYLNRTEAANVEKITTKLLKAGAKPDQIGIITPYEGQRSYLVQYMQFSGSLHTKLYQEVEIASVDAFQGREKDFIILSCVRANEHQGIGFLNDPRRLNVALTRARYGVIIVGNPKALSKQPLWNHLLNYYKEQKVLVEGPLNNLRESLMQFSKPRKLVNTINPGARFMTTAMYDAREAIIPGSVYDRSSQGRPSSMYFQTHDQIGMISAGPSHVAAMNIPIPFNLVMPPMPPPGYFGQANGPAAGRGTPKGKTGRGGRQKNRFGLPGPSQTNLPNSQASQDVASQPFSQGALTQGYISMSQPSQMSQPGLSQPELSQDSYLGDEFKSQIDVALSQDSTYQGERAYQHGGVTGLSQY

molecular target: mixed-lineage leukemia (MLL) protein (human (endogenous in 293T)) (UniProt Q03164); test: affinity purification with mass spectrometry; MLL affinity purification from total 293T cell extracts, followed by LC/MS analysis

Q: How did the binding turn out when MENIN (from UniProt O00255 1-610) was run?
A: binds

Q: For PABPC1 (from UniProt P11940 1-636), which binding is on record?
A: binds

Q: With YB-1 (from UniProt P67809 1-324) as the molecule, how does the binding read?
A: binds

Q: For B1, which binding is on record?
A: binds
